The list shows a part of the results.
Tests used:
Experiment in all cases: log2 fold change, soluble protein after heating vs DMSO (PISA); higher = thermal stabilisation; K562 lysate, 10 uM; active = over 0.2 and 3.5 SD of the protein, either way, in both replicates (recomputed)
alvocidib = compound: CN1CC[C@H](c2c(O)cc(O)c3c(=O)cc(-c4ccccc4Cl)oc23)[C@H](O)C1 [alvocidib]
Outline: (§1)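 Values give the log-two fold change in thermal stability against solvent controls, from duplicates. Crude K562 extract at 1 mg/mL protein, made by dounce homogenisation in PBS pH 7.4 with 1 mM MgCl2, was treated with 10 μM compound for 30 min. After 3 min heating across 48°C-58°C, aliquots were pooled, adjusted to 0.5% NP-40 at 4°C and centrifuged at 21,000xg for 90 min. The supernatant was measured by TMTpro 16plex LC-MS/MS with channel sums equalised.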

The chains behind the UniProt entries cited, without tags or fusion partners. Where a name states a change or a piece, a line headed by the entry shows the natural chain unless it says otherwise.
UniProt Q96HR9: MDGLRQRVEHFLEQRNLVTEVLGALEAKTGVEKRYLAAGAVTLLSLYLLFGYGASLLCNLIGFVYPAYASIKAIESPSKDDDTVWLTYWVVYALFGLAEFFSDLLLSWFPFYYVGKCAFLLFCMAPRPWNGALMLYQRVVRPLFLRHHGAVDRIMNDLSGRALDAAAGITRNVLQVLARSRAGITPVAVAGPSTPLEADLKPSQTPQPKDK
UniProt Q96PM5: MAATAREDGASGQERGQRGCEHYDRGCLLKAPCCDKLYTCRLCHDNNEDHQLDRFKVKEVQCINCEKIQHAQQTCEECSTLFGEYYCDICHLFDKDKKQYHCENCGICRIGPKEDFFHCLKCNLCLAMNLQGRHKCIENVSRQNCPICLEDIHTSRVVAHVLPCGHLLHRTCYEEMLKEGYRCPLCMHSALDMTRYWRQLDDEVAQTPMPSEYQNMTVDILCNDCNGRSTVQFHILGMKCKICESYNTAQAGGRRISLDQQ
UniProt P40938, whole entry, looked up: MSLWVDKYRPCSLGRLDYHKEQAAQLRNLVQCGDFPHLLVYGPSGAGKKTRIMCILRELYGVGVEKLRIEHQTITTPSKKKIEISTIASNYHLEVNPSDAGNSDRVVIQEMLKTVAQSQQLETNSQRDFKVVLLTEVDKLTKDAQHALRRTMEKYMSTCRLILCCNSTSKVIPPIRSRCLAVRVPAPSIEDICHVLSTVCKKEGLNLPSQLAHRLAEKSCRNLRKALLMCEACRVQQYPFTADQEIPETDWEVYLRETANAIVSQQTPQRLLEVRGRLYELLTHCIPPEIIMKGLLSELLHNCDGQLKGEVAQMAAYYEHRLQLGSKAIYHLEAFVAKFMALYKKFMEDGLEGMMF
UniProt P35241, whole entry, looked up: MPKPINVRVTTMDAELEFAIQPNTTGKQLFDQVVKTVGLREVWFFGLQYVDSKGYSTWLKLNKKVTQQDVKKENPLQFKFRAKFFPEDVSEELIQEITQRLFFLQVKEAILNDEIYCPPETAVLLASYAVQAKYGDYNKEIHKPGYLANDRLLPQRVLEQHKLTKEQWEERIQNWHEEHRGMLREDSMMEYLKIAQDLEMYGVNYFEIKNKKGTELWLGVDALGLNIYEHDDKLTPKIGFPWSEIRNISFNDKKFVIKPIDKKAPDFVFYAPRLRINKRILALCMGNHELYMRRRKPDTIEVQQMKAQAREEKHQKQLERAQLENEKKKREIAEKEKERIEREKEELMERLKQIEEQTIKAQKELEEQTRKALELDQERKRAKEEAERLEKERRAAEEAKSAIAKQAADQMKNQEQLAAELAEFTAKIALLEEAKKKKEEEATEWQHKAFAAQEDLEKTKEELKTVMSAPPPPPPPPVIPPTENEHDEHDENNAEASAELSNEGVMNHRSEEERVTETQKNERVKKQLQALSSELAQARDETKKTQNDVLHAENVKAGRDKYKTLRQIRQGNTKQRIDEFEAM
UniProt Q9Y2P8: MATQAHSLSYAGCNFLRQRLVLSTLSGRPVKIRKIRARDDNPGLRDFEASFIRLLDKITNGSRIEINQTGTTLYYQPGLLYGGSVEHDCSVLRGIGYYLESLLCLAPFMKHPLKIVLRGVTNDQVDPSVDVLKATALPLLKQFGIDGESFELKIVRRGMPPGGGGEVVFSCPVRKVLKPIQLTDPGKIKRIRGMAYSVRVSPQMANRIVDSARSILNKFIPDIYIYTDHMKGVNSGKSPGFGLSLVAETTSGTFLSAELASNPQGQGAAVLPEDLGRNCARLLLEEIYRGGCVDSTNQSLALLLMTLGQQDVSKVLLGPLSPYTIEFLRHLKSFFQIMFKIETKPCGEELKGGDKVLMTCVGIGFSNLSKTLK
UniProt Q96D71: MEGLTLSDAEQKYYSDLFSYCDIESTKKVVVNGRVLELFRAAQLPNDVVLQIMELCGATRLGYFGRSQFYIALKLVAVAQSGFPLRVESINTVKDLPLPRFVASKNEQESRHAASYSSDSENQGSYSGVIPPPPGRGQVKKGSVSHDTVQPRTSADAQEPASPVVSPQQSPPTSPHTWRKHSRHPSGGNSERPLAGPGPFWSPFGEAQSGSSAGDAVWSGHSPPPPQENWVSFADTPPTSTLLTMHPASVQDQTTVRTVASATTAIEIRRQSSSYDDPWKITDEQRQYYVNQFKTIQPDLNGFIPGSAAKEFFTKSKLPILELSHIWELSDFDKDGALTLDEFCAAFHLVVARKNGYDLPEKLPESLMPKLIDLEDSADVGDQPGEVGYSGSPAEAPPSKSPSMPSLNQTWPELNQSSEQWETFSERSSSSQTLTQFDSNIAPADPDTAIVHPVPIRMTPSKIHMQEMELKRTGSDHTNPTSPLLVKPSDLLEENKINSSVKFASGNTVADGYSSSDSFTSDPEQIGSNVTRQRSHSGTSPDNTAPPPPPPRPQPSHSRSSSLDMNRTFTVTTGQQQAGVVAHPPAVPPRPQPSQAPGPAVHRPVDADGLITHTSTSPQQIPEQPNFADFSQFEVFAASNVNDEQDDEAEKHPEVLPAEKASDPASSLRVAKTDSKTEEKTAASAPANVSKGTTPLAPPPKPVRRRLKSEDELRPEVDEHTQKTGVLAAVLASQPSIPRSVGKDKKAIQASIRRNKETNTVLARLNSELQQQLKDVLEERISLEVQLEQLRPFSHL
UniProt Q99666, whole entry, looked up: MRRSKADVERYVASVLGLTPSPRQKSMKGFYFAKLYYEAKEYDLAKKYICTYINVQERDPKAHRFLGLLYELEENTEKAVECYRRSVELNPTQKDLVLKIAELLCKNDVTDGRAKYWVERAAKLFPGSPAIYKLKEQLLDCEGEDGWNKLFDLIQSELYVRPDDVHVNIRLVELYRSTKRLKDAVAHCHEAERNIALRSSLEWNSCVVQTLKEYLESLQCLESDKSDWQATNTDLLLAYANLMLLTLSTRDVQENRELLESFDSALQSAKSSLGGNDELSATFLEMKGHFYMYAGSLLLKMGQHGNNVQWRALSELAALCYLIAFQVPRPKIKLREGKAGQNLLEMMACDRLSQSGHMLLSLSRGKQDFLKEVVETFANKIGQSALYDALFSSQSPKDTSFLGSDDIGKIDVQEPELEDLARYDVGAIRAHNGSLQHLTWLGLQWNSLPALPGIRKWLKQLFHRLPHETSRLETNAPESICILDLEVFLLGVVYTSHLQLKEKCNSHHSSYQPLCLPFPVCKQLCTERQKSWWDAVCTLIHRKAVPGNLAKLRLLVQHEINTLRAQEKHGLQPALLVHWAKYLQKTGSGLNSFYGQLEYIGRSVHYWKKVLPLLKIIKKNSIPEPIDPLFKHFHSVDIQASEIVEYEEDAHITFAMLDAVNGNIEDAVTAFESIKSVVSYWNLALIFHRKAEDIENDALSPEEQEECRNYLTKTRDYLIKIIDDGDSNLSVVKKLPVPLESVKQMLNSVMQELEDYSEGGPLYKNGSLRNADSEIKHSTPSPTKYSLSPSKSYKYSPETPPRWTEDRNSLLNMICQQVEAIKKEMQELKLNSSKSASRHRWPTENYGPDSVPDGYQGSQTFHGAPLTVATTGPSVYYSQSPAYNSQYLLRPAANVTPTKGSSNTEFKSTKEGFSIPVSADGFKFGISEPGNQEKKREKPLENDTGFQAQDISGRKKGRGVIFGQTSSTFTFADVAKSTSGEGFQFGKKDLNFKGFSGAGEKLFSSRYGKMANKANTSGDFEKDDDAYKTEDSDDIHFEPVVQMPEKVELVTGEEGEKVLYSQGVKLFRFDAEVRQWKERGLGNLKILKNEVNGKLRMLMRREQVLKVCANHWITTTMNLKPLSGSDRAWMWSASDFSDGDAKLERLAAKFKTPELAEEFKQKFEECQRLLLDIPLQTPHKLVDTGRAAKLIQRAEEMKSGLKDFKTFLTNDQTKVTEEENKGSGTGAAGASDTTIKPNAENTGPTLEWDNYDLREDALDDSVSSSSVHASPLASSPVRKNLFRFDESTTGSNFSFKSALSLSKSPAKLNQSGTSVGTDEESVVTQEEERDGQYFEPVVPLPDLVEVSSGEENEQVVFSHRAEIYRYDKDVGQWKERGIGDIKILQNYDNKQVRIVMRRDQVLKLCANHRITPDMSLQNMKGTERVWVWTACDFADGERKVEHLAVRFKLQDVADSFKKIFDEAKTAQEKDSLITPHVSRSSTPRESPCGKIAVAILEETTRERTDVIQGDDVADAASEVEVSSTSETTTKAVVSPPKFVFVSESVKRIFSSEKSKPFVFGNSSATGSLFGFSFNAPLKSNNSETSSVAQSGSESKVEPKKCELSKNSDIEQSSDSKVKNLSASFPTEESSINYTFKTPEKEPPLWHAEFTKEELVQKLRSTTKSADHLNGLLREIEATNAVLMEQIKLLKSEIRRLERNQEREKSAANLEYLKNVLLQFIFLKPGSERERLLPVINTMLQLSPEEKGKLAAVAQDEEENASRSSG
UniProt Q15283: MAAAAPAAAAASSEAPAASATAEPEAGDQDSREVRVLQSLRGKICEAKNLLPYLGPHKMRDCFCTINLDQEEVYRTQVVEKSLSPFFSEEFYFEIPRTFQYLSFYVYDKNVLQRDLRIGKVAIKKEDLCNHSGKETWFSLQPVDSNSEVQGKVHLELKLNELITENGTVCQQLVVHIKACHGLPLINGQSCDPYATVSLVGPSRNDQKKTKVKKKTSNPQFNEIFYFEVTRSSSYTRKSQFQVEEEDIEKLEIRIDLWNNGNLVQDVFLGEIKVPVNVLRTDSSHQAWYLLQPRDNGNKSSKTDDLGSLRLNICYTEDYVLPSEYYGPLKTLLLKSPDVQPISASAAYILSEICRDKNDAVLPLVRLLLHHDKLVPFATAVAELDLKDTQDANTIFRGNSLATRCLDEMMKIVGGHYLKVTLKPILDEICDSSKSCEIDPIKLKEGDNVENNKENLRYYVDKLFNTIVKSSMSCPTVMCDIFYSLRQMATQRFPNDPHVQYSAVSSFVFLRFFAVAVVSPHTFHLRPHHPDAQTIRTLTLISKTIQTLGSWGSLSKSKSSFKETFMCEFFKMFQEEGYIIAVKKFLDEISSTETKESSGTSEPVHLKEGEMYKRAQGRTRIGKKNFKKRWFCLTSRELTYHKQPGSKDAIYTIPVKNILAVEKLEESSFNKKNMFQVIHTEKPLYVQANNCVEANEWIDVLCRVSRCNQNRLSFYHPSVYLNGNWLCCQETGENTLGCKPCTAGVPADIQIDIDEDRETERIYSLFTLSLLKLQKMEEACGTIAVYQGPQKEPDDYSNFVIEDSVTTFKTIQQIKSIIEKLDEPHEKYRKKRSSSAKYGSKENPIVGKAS
UniProt Q04864: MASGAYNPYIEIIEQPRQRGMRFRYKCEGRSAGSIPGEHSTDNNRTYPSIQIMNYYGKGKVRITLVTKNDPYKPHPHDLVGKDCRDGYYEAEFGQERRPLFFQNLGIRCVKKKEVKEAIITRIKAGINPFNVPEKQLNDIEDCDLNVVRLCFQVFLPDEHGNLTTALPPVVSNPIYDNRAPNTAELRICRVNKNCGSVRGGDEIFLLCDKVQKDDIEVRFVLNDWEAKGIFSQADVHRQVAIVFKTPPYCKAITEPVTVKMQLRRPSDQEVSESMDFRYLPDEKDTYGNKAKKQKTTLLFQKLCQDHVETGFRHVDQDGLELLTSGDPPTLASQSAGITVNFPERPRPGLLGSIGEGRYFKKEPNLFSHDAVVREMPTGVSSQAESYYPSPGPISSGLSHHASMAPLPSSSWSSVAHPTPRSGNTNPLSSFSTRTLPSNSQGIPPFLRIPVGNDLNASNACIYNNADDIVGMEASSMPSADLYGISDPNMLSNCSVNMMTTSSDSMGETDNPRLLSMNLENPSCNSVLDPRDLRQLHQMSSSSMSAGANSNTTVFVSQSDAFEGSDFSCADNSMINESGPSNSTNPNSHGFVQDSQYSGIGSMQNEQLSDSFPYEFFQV
UniProt A6NED2: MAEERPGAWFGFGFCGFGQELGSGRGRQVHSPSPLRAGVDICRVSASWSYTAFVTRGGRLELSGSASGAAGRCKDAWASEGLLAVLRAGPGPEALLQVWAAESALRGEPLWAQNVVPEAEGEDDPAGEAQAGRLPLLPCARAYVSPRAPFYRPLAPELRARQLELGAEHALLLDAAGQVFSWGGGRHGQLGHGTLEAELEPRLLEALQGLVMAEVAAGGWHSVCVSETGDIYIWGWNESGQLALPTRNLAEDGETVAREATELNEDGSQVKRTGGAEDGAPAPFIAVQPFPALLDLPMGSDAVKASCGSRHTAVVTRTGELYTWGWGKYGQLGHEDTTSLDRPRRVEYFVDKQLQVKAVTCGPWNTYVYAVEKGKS

Tubastatin A = compound: CN1CCc2c(c3ccccc3n2Cc2ccc(C(=O)NO)cc2)C1 [Tubastatin A]
Outline: as §1

[1] = compound: CNC(=O)C1=CC=CC=C1NC2=NC(=NC=C2Cl)NC3=C(C=C(C=C3)N4CCOCC4)OC
Outline: as §1

defactinib = compound: CNC(=O)c1ccc(Nc2ncc(C(F)(F)F)c(NCc3nccnc3N(C)S(C)(=O)=O)n2)cc1 [defactinib]
Outline: as §1

[2] = compound: CNc1nc(-c2ccc3c(N)n[nH]c3c2)cc(N2C[C@@H](C(=O)NC3CCCCC3)CC[C@H]2C)n1
Outline: as §1

encorafenib = compound: COC(=O)N[C@@H](C)CNc1nccc(-c2cn(C(C)C)nc2-c2cc(Cl)cc(NS(C)(=O)=O)c2F)n1 [encorafenib]
Outline: as §1

[3] = compound: COC(=O)[C@H](CCSC)NC(=O)C1=C(C=C(C=C1)NC[C@H](CS)N)C2=CC=CC=C2
Outline: as §1

alisertib = compound: COc1cc(Nc2ncc3c(n2)-c2ccc(Cl)cc2C(c2c(F)cccc2OC)=NC3)ccc1C(=O)O [alisertib]
Outline: as §1

[4] = compound: COc1cc2nc(-c3cc(F)ccc3O)nc(N[C@@H]3CNC[C@H]3C(C)(C)O)c2cc1OC
Outline: as §1

gefitinib = compound: COc1cc2ncnc(Nc3ccc(F)c(Cl)c3)c2cc1OCCCN1CCOCC1 [gefitinib]
Outline: as §1

lapatinib = compound: CS(=O)(=O)CCNCc1ccc(-c2ccc3ncnc(Nc4ccc(OCc5cccc(F)c5)c(Cl)c4)c3c2)o1 [lapatinib]
Outline: as §1

pictilisib = compound: CS(=O)(=O)N1CCN(Cc2cc3nc(-c4cccc5[nH]ncc45)nc(N4CCOCC4)c3s2)CC1 [pictilisib]
Outline: as §1

crizotinib = compound: C[C@@H](Oc1cc(-c2cnn(C3CCNCC3)c2)cnc1N)c1c(Cl)ccc(F)c1Cl [crizotinib]
Outline: as §1

[5] = compound: C[C@H](C1=CC=C(C=C1)C(=O)NC2=C3C=CNC3=NC=C2)N
Outline: as §1

duvelisib = compound: C[C@H](Nc1ncnc2nc[nH]c12)c1cc2cccc(Cl)c2c(=O)n1-c1ccccc1 [duvelisib]
Outline: as §1

gandotinib = compound: Cc1cc(Nc2cc(CN3CCOCC3)c3nc(C)c(Cc4ccc(Cl)cc4F)n3n2)n[nH]1 [gandotinib]
Outline: as §1

tozasertib = compound: Cc1cc(Nc2cc(N3CCN(C)CC3)nc(Sc3ccc(NC(=O)C4CC4)cc3)n2)n[nH]1 [tozasertib]
Outline: as §1

doramapimod = compound: Cc1ccc(-n2nc(C(C)(C)C)cc2NC(=O)Nc2ccc(OCCN3CCOCC3)c3ccccc23)cc1 [doramapimod]
Outline: as §1

bafetinib = compound: Cc1ccc(NC(=O)c2ccc(CN3CC[C@H](N(C)C)C3)c(C(F)(F)F)c2)cc1Nc1nccc(-c2cncnc2)n1 [bafetinib]
Outline: as §1

[6] = compound: Cc1cccc(CC(=O)N2CCc3c2ccc(-c2cn(C)c4ncnc(N)c24)c3F)n1
Outline: as §1

| Target | log2 fold change (alvocidib) | log2 fold change (Tubastatin A) | log2 fold change [1] | log2 fold change (defactinib) | log2 fold change [2] | log2 fold change (encorafenib) | log2 fold change [3] | log2 fold change (alisertib) | log2 fold change [4] | log2 fold change (gefitinib) | log2 fold change (lapatinib) | log2 fold change (pictilisib) | log2 fold change (crizotinib) | log2 fold change [5] | log2 fold change (duvelisib) | log2 fold change (gandotinib) | log2 fold change (tozasertib) | log2 fold change (doramapimod) | log2 fold change (bafetinib) | log2 fold change [6] |
| --- | --- | --- | --- | --- | --- | --- | --- | --- | --- | --- | --- | --- | --- | --- | --- | --- | --- | --- | --- | --- |
| REEP6 (UniProt Q96HR9) | inactive: -0.089 | inactive: 0.045 | inactive: 0.02 | inactive: 0.056 | inactive: -0.013 | inactive: 0.076 | inactive: -0.025 | inactive: 0.032 | inactive: -0.036 | inactive: -0.175 | inactive: 0.066 | inactive: 0.047 | inactive: -0.04 | inactive: -0.269 | inactive: -0.006 | inactive: 0.056 | inactive: 0.097 | inactive: 0.052 | inactive: -0.031 | inactive: 0.078 |
| RCHY1 (UniProt Q96PM5) | inactive: -0.016 | inactive: 0.038 | inactive: 0.044 | inactive: 0.043 | inactive: 0.121 | inactive: -0.081 | inactive: -0.019 | inactive: -0.055 | inactive: 0.006 | inactive: -0.203 | inactive: 0.014 | inactive: -0.004 | inactive: -0.005 | inactive: 0.058 | inactive: 0.03 | inactive: -0.001 | inactive: 0.063 | inactive: 0.045 | inactive: 0.012 | inactive: -0.058 |
| RFC3 (UniProt P40938) | inactive: -0.008 | inactive: -0.142 | inactive: 0.024 | inactive: 0.036 | inactive: -0.014 | inactive: 0.002 | inactive: -0.005 | inactive: 0.007 | inactive: 0.029 | inactive: -0.075 | inactive: -0.045 | inactive: -0.009 | inactive: -0.043 | inactive: -0.072 | inactive: 0.037 | inactive: -0.039 | inactive: 0.027 | inactive: 0.016 | inactive: -0.051 | inactive: 0.1 |
| RDX (UniProt P35241) | inactive: 0.116 | inactive: 0.042 | inactive: -0.002 | inactive: -0.009 | inactive: 0.034 | inactive: -0.047 | inactive: -0.033 | inactive: -0.018 | inactive: 0 | inactive: 0.013 | inactive: -0.018 | inactive: 0.02 | inactive: 0.063 | active: 0.546 | inactive: 0.005 | inactive: -0.093 | inactive: -0.005 | inactive: -0.045 | inactive: 0.077 | inactive: -0.136 |
| RCL1 (UniProt Q9Y2P8) | inactive: -0.041 | inactive: -0.073 | inactive: 0.005 | inactive: 0.01 | inactive: -0.03 | inactive: 0.014 | inactive: 0.032 | inactive: -0.006 | inactive: 0.01 | inactive: 0.051 | inactive: -0.041 | inactive: 0.033 | inactive: -0.041 | inactive: -0.073 | inactive: 0.006 | inactive: -0.028 | inactive: -0.013 | inactive: 0.029 | inactive: -0.027 | inactive: 0.113 |
| RECQL (UniProt P46063) | inactive: 0.016 | inactive: -0.007 | inactive: 0.019 | inactive: 0.013 | inactive: 0.02 | inactive: 0.005 | inactive: 0.087 | inactive: -0.035 | inactive: 0.008 | inactive: -0.033 | inactive: -0.002 | inactive: -0.026 | inactive: -0.022 | inactive: -0.011 | inactive: -0.012 | inactive: -0.032 | inactive: -0.021 | inactive: -0.021 | inactive: -0.02 | inactive: 0.006 |
| REPS1 (UniProt Q96D71) | inactive: -0.025 | inactive: -0.018 | inactive: 0.002 | inactive: 0.045 | inactive: -0.013 | inactive: 0.007 | inactive: 0.106 | inactive: -0.012 | inactive: -0.001 | inactive: 0.02 | inactive: 0.008 | inactive: -0.007 | inactive: -0.022 | inactive: -0.051 | inactive: -0.01 | inactive: 0.037 | inactive: -0.015 | inactive: 0.026 | inactive: -0.028 | inactive: 0.064 |
| RGPD5 (UniProt Q99666) | inactive: -0.039 | inactive: -0.006 | inactive: 0.053 | inactive: -0.082 | inactive: 0.113 | inactive: -0.054 | inactive: 0.048 | inactive: 0.103 | inactive: -0.061 | inactive: -0.057 | inactive: 0 | inactive: 0.081 | inactive: 0 | inactive: -0.02 | inactive: 0.016 | inactive: 0.051 | inactive: -0.028 | inactive: -0.002 | inactive: -0.019 | inactive: -0.009 |
| RASA2 (UniProt Q15283) | inactive: 0 | inactive: -0.078 | inactive: 0.019 | inactive: 0.053 | inactive: -0.064 | inactive: -0.059 | inactive: 0.113 | inactive: -0.003 | inactive: -0.008 | inactive: -0.003 | inactive: 0.026 | inactive: -0.089 | inactive: -0.014 | inactive: -0.007 | inactive: -0.045 | inactive: -0.087 | inactive: 0.013 | inactive: 0.072 | inactive: -0.078 | inactive: 0.096 |
| RFX1 (UniProt P22670) | inactive: -0.001 | inactive: 0.076 | inactive: 0.011 | inactive: -0.008 | inactive: -0.005 | inactive: 0.011 | inactive: -0.054 | inactive: -0.022 | inactive: -0.007 | inactive: -0.011 | inactive: -0.031 | inactive: 0.015 | inactive: -0.023 | inactive: -0.052 | inactive: -0.008 | inactive: 0.017 | inactive: -0.014 | inactive: -0.041 | inactive: -0.047 | inactive: -0.001 |
| RBM5 (UniProt P52756) | inactive: -0.226 | inactive: -0.059 | inactive: 0.021 | inactive: 0.01 | inactive: 0.028 | inactive: 0.044 | inactive: 0.134 | inactive: -0.035 | inactive: 0.182 | inactive: 0.18 | inactive: 0.029 | inactive: -0.013 | inactive: 0.005 | inactive: -0.268 | inactive: -0.058 | inactive: -0.015 | inactive: 0 | inactive: 0.058 | inactive: -0.051 | inactive: 0.089 |
| RBM8A (UniProt Q9Y5S9) | inactive: 0.086 | inactive: 0.024 | inactive: -0.024 | inactive: 0.017 | inactive: -0.256 | inactive: 0.002 | inactive: -0.069 | inactive: 0 | inactive: -0.062 | inactive: -0.024 | inactive: 0.01 | inactive: 0.017 | inactive: 0.135 | active: 0.277 | inactive: -0.014 | inactive: -0.209 | inactive: 0.06 | inactive: -0.038 | inactive: -0.017 | inactive: -0.2 |
| RAPGEF5, A0A590UJR0 | inactive: -0.06 | inactive: 0.083 | inactive: 0.064 | inactive: -0.172 | inactive: -0.009 | inactive: -0.26 | inactive: 0.066 | inactive: 0.068 | inactive: 0.003 | inactive: 0.177 | inactive: -0.115 | inactive: -0.097 | inactive: -0.17 | inactive: -0.097 | inactive: -0.012 | inactive: 0.095 | inactive: 0.12 | inactive: 0.022 | inactive: -0.422 | inactive: 0.059 |
| REL isoform 2 (UniProt Q04864) | inactive: 0.061 | inactive: -0.126 | inactive: 0.003 | inactive: 0.023 | inactive: -0.056 | inactive: 0.012 | inactive: 0.029 | inactive: -0.003 | inactive: -0.019 | inactive: 0.029 | inactive: 0.014 | inactive: 0.005 | inactive: -0.025 | active: 0.32 | inactive: 0.001 | inactive: 0.074 | inactive: 0.052 | inactive: 0.023 | inactive: -0.04 | inactive: -0.072 |
| RCCD1 (UniProt A6NED2) | inactive: -0.055 | inactive: -0.011 | inactive: -0.033 | inactive: 0.044 | inactive: 0 | inactive: -0.047 | inactive: -0.006 | inactive: -0.013 | inactive: 0.033 | inactive: 0.019 | inactive: -0.003 | inactive: -0.048 | inactive: 0.012 | inactive: 0.112 | inactive: -0.021 | inactive: -0.026 | inactive: 0.061 | inactive: -0.036 | inactive: 0.109 | inactive: 0.025 |
| RBCK1 (UniProt Q9BYM8) | inactive: 0.05 | inactive: -0.024 | inactive: 0.028 | inactive: 0 | inactive: -0.088 | inactive: 0.031 | inactive: -0.107 | inactive: -0.004 | inactive: -0.021 | inactive: 0.057 | inactive: -0.067 | inactive: -0.053 | inactive: -0.008 | inactive: 0.123 | inactive: 0.02 | inactive: -0.09 | inactive: 0.026 | inactive: -0.033 | inactive: -0.08 | inactive: -0.103 |

In another format: entries from further up
Target	log2 fold change (alvocidib)	log2 fold change (Tubastatin A)	log2 fold change [1]	log2 fold change (defactinib)	log2 fold change [2]	log2 fold change (encorafenib)	log2 fold change [3]	log2 fold change (alisertib)	log2 fold change [4]	log2 fold change (gefitinib)	log2 fold change (lapatinib)	log2 fold change (pictilisib)	log2 fold change (crizotinib)	log2 fold change [5]	log2 fold change (duvelisib)	log2 fold change (gandotinib)	log2 fold change (tozasertib)	log2 fold change (doramapimod)	log2 fold change (bafetinib)	log2 fold change [6]
RCCD1 (UniProt A6NED2)	inactive: -0.055	inactive: -0.011	inactive: -0.033	inactive: 0.044	inactive: 0	inactive: -0.047	inactive: -0.006	inactive: -0.013	inactive: 0.033	inactive: 0.019	inactive: -0.003	inactive: -0.048	inactive: 0.012	inactive: 0.112	inactive: -0.021	inactive: -0.026	inactive: 0.061	inactive: -0.036	inactive: 0.109	inactive: 0.025
RBCK1 (UniProt Q9BYM8)	inactive: 0.05	inactive: -0.024	inactive: 0.028	inactive: 0	inactive: -0.088	inactive: 0.031	inactive: -0.107	inactive: -0.004	inactive: -0.021	inactive: 0.057	inactive: -0.067	inactive: -0.053	inactive: -0.008	inactive: 0.123	inactive: 0.02	inactive: -0.09	inactive: 0.026	inactive: -0.033	inactive: -0.08	inactive: -0.103
